The other results are listed elsewhere or left out.
Legend:
Experiment in all cases: log2 fold change, soluble protein after heating vs DMSO (PISA); higher = thermal stabilisation; K562 cells, 10 uM, 30 min; active = over 0.2 and 3.5 SD of the protein, either way, in both replicates (recomputed)
[1] = compound: CC[C@@H]1C(=O)N(C)c2cnc(Nc3ccc(C(=O)NC4CCN(C)CC4)cc3OC)nc2N1C1CCCC1
How it was run: (§1)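 Quantification of soluble protein used TMTpro 16plex LC-MS/MS, with channel sums equalised. Samples were the supernatant after 21,000xg for 90 min of pooled aliquots from K562 cells (2×10^6 cells/mL) treated with 10 μM compound for 30 min, heated for 3 min over 48°C-58°C, and extracted in PBS with 0.5% NP-40 at 4°C. Values, from duplicates, describe thermal stability against control samples on a log2 fold-change scale.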

Amino acid sequences for entries named in this document (tags omitted). A change or cut given only in a name is not applied to a line headed by its entry.
UniProt Q96DA0: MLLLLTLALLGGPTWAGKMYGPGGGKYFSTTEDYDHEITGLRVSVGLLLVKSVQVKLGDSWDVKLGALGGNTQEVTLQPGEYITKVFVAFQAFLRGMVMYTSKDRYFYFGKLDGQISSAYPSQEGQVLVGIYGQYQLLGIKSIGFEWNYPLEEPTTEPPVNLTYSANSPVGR
UniProt P07947, whole entry, looked up: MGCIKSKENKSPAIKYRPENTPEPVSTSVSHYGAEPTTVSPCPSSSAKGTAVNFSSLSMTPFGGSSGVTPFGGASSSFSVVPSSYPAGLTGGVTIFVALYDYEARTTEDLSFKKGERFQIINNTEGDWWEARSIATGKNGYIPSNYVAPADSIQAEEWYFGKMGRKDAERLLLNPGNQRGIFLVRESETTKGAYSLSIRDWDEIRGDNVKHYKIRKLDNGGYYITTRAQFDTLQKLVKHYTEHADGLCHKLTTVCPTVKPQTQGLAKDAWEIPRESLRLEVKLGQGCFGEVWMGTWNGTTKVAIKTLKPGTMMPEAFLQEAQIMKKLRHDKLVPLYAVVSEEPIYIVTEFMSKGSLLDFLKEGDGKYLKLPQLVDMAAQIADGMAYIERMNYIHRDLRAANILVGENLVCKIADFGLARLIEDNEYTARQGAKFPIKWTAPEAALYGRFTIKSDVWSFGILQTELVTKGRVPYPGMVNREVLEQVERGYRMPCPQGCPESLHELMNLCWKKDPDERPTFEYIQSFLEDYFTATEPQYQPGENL
UniProt A4UGR9: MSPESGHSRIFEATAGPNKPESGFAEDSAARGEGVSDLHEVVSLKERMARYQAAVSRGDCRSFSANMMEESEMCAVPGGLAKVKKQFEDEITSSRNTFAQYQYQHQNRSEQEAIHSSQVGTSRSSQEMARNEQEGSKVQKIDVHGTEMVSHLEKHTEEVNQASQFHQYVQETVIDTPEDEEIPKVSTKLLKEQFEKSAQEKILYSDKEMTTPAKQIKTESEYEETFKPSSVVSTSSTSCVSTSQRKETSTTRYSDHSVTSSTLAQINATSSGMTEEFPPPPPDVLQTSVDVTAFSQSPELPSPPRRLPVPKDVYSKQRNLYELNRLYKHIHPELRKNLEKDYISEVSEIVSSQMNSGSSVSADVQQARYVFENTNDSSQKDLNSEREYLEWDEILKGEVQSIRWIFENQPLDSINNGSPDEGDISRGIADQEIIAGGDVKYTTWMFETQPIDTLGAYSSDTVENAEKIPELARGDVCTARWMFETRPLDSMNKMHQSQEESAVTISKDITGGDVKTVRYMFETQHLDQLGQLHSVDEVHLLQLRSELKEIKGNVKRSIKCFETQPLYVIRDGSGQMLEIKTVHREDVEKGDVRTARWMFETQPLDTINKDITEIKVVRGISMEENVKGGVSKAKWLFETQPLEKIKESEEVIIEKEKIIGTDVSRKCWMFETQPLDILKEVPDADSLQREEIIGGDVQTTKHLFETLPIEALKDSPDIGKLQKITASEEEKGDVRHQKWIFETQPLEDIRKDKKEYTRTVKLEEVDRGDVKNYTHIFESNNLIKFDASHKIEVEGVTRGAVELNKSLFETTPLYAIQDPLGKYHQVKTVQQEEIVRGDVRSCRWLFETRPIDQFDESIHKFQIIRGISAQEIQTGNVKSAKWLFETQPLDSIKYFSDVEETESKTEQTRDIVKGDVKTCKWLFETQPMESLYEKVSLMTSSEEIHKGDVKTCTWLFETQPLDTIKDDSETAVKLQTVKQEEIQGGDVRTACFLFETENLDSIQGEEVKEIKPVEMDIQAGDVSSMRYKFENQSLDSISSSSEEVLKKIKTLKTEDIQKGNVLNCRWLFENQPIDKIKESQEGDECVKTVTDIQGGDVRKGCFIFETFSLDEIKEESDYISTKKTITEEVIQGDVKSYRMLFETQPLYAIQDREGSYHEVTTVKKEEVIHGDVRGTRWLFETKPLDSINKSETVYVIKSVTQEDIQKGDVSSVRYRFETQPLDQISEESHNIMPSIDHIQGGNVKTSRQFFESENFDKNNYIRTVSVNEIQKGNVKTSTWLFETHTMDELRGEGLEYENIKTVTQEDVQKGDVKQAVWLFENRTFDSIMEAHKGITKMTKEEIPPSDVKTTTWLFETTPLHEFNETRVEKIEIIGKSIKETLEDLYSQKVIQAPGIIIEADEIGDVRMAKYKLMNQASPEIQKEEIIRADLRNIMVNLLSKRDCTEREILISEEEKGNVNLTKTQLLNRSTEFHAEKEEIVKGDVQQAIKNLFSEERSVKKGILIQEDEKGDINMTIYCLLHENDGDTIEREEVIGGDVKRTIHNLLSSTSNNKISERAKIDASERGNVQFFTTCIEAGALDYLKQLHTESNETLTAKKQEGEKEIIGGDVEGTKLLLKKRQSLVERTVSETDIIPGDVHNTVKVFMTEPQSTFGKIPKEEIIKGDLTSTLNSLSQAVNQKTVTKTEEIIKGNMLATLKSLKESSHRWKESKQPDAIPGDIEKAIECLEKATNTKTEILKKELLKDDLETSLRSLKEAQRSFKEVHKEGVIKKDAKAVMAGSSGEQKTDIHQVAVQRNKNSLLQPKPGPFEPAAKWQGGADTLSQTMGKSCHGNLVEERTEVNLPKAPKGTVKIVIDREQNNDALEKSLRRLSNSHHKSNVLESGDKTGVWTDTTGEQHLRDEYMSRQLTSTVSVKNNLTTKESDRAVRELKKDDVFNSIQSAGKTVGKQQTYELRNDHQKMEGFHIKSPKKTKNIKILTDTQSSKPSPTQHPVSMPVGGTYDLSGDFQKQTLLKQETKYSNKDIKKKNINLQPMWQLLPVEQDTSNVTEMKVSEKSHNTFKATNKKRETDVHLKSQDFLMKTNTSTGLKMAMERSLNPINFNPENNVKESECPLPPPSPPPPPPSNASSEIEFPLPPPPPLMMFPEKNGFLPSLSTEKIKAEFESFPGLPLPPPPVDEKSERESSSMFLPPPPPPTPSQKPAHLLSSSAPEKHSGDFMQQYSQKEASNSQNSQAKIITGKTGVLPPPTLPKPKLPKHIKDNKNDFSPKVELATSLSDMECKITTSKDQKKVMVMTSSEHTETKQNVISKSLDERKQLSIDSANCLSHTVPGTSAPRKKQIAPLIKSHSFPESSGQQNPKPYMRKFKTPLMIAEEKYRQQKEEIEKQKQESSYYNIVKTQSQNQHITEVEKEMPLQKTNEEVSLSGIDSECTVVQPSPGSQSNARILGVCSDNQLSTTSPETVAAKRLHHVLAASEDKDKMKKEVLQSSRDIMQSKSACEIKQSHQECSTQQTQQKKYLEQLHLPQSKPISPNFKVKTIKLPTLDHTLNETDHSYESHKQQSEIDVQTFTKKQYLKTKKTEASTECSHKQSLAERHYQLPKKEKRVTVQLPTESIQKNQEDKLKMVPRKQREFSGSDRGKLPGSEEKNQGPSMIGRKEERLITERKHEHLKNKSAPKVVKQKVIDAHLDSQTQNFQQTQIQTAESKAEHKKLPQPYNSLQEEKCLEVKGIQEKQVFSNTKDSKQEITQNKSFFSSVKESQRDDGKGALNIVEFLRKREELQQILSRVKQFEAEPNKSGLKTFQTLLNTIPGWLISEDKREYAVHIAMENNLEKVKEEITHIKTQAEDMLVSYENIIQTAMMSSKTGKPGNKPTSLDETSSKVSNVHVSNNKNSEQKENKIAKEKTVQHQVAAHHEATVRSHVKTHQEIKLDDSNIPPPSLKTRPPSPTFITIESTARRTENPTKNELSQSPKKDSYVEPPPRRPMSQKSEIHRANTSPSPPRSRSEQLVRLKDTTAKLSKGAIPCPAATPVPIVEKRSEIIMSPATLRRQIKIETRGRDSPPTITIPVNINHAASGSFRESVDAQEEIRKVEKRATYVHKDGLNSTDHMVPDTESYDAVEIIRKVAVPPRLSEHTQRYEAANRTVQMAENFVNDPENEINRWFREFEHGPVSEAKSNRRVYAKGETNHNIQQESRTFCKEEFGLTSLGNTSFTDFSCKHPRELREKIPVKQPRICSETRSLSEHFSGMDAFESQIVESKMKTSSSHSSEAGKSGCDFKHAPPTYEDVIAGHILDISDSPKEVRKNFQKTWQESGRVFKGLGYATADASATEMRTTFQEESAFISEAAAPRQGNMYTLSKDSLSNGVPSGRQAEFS
UniProt Q969W1: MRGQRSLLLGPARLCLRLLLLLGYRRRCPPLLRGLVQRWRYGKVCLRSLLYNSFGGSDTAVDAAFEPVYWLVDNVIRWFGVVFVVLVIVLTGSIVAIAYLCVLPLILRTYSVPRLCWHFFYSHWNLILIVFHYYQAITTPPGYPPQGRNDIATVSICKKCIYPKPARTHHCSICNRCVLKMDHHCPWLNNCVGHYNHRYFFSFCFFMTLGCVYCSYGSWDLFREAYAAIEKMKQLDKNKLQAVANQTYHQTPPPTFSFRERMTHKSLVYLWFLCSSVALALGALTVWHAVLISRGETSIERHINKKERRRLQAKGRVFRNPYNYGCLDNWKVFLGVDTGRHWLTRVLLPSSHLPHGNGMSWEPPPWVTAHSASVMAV
UniProt Q96EC8: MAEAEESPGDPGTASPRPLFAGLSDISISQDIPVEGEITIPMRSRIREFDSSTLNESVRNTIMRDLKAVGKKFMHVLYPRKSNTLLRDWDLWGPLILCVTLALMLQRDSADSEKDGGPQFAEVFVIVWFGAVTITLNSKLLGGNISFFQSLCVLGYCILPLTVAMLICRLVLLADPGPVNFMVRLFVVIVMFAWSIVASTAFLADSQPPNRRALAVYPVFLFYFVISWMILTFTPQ
UniProt Q8TCF1: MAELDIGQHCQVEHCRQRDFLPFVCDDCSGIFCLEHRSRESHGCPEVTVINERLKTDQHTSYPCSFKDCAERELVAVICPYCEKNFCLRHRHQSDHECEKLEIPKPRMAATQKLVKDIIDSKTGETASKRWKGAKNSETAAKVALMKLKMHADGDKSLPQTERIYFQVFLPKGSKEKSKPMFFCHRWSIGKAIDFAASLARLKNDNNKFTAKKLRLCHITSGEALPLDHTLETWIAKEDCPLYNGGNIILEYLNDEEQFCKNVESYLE
UniProt O43167: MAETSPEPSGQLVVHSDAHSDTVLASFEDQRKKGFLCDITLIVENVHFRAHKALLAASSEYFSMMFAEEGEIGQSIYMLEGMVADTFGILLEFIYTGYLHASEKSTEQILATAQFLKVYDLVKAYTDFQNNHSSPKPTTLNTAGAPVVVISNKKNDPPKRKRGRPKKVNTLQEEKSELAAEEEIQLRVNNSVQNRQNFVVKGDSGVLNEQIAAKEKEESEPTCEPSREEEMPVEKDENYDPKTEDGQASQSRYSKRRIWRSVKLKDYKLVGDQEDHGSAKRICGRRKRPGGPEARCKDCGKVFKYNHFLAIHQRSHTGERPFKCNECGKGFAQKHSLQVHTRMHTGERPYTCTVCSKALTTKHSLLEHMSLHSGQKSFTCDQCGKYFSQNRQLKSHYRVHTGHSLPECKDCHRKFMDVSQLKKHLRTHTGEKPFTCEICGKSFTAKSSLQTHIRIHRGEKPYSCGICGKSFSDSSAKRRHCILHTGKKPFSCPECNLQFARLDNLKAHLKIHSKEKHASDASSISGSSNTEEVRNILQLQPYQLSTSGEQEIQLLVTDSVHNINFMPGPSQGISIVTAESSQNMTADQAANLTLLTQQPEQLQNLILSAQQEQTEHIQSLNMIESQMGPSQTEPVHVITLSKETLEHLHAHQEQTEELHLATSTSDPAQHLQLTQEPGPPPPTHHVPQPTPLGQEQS
UniProt Q8TBF4: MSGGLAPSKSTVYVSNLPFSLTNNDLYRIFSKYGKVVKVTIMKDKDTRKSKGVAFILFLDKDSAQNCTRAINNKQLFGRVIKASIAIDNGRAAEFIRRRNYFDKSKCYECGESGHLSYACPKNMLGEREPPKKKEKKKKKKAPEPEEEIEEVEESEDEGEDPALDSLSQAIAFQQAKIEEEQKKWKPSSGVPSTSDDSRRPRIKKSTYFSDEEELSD
UniProt Q9H5J0: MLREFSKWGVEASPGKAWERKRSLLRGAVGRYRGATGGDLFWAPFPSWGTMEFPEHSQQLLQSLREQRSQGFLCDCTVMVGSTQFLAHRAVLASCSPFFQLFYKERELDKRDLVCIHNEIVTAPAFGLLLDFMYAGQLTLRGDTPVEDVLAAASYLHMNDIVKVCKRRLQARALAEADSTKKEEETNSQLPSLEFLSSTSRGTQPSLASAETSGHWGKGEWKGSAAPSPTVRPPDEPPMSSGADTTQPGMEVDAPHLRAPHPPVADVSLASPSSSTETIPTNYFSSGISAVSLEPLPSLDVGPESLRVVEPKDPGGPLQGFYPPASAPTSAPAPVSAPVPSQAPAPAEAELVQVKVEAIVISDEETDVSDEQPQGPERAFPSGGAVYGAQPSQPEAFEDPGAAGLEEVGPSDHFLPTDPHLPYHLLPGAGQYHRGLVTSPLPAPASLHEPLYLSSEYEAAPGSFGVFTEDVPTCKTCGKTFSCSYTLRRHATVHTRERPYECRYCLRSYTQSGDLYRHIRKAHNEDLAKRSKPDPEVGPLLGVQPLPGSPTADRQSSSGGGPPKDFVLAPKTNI

volasertib = compound: CC[C@@H]1C(=O)N(C)c2cnc(Nc3ccc(C(=O)N[C@H]4CC[C@H](N5CCN(CC6CC6)CC5)CC4)cc3OC)nc2N1C(C)C [volasertib]
How it was run: as §1

[2] = compound: CN(C)CC(=O)Nc1ccc2[nH]c(=O)c3ccccc3c2c1
How it was run: as §1

rosiglitazone = compound: CN(CCOC1=CC=C(C=C1)C[C@H]2C(=O)NC(=O)S2)C3=CC=CC=N3 (racemic) [rosiglitazone]
How it was run: as §1

sotrastaurin = compound: CN1CCN(c2nc(C3=C(c4c[nH]c5ccccc45)C(=O)NC3=O)c3ccccc3n2)CC1 [sotrastaurin]
How it was run: as §1

defactinib = compound: CNC(=O)c1ccc(Nc2ncc(C(F)(F)F)c(NCc3nccnc3N(C)S(C)(=O)=O)n2)cc1 [defactinib]
How it was run: as §1

rucaparib = compound: CNCc1ccc(-c2[nH]c3cc(F)cc4c3c2CCNC4=O)cc1 [rucaparib]
How it was run: as §1

encorafenib = compound: COC(=O)N[C@@H](C)CNc1nccc(-c2cn(C(C)C)nc2-c2cc(Cl)cc(NS(C)(=O)=O)c2F)n1 [encorafenib]
How it was run: as §1

[3] = compound: COC(=O)[C@H](CCSC)NC(=O)C1=C(C=C(C=C1)NC[C@H](CS)N)C2=CC=CC=C2
How it was run: as §1

[4] = compound: CC[C@H](C)N1C=C(C2=C(C=C(C=C21)C3=CN=C(C=C3)N4CCNCC4)C(=O)NCC5=C(C=C(NC5=O)C)C)C
How it was run: as §1

epoxomicin = compound: CC[C@H](C)[C@@H](C(=O)N[C@@H]([C@@H](C)O)C(=O)N[C@@H](CC(C)C)C(=O)[C@]1(CO1)C)NC(=O)[C@H]([C@@H](C)CC)N(C)C(=O)C [epoxomicin]
How it was run: as §1

[5] = compound: CCn1cc(-c2ccnc3[nH]c(-c4cccc(CN(C)C)c4)cc23)c(-c2ccc(NC(=O)N(C)C)cc2)n1
How it was run: as §1

[6] = compound: CN1C2=C(C3=C1C(=O)N(N=C3)CC4=CC(=CC=C4)N)SC(=C2)S(=O)C
How it was run: as §1

[7] = compound: CN1CCC(CNc2ccc3ncc(-c4cccc(OC(F)(F)F)c4)n3n2)CC1
How it was run: as §1

saracatinib = compound: CN1CCN(CCOc2cc(OC3CCOCC3)c3c(Nc4c(Cl)ccc5c4OCO5)ncnc3c2)CC1 [saracatinib]
How it was run: as §1

Tubastatin A = compound: CN1CCc2c(c3ccccc3n2Cc2ccc(C(=O)NO)cc2)C1 [Tubastatin A]
How it was run: as §1

[8] = compound: CNC(=O)C1=CC=CC=C1NC2=NC(=NC=C2Cl)NC3=C(C=C(C=C3)N4CCOCC4)OC
How it was run: as §1

[9] = compound: CNc1nc(-c2ccc3c(N)n[nH]c3c2)cc(N2C[C@@H](C(=O)NC3CCCCC3)CC[C@H]2C)n1
How it was run: as §1

[10] = compound: CCn1c(C(=O)N(C2CC2)C2CC2)cc2c3c(ncn3C)c(Nc3cc(C)n(C)n3)nc21
How it was run: as §1

alvocidib = compound: CN1CC[C@H](c2c(O)cc(O)c3c(=O)cc(-c4ccccc4Cl)oc23)[C@H](O)C1 [alvocidib]
How it was run: as §1

Target	log2 fold change [1]	log2 fold change (volasertib)	log2 fold change [2]	log2 fold change (rosiglitazone)	log2 fold change (sotrastaurin)	log2 fold change (defactinib)	log2 fold change (rucaparib)	log2 fold change (encorafenib)	log2 fold change [3]	log2 fold change [4]	log2 fold change (epoxomicin)	log2 fold change [5]	log2 fold change [6]	log2 fold change [7]	log2 fold change (saracatinib)	log2 fold change (Tubastatin A)	log2 fold change [8]	log2 fold change [9]	log2 fold change [10]	log2 fold change (alvocidib)
ZG16B (UniProt Q96DA0)	inactive: -0.218	inactive: -0.471	inactive: 0.162	inactive: -0.096	inactive: -0.016	inactive: 0.344	inactive: 0.684	inactive: -0.533	inactive: 0.155											
YES1 (UniProt P07947)	inactive: 0.129	inactive: -0.038	inactive: -0.075			inactive: -0.199	inactive: 0.169	inactive: 0.242	inactive: -0.006	inactive: 0.112	inactive: 0.009	inactive: -0.241	inactive: 0.053	inactive: -0.326	active: -0.551	inactive: 0.094	active: -0.623	inactive: -0.037		
XIRP2 isoform 8 (UniProt A4UGR9)	inactive: -0.145	inactive: 0.095		inactive: -0.033	inactive: 0.196		inactive: 0.006	inactive: -0.034		inactive: -0.048		inactive: 0.096	inactive: 0.064	inactive: 0.055	inactive: 0.003	inactive: -0.071	inactive: -0.152	inactive: -0.04	inactive: -0.013	inactive: 0.203
ZDHHC16 (UniProt Q969W1)	inactive: -0.006		inactive: -0.143		inactive: 0.029	inactive: 0.072	inactive: -0.245	inactive: 0.096	inactive: 0.085	inactive: -0.068							inactive: 0.039		inactive: 0.029	
YIPF6 (UniProt Q96EC8)	inactive: -0.001	inactive: -0.037	inactive: -0.012		active: -0.648	inactive: -0.041	inactive: 0.055	inactive: -0.042	inactive: 0.041	inactive: -0.039	inactive: 0.013	inactive: 0.103	inactive: -0.097	inactive: 0.155	inactive: -0.023	inactive: -0.01	inactive: -0.006	inactive: -0.039		
ZFAND1 (UniProt Q8TCF1)	inactive: -0.065	inactive: -0.248	inactive: 0.045	inactive: 0.019	inactive: -0.083	inactive: 0.024	inactive: 0.025	inactive: 0.011	inactive: -0.289	inactive: 0.01						inactive: 0.065	inactive: 0.107		inactive: 0.028	
ZMYM4 (UniProt Q5VZL5)	inactive: -0.052		inactive: -0.025	inactive: 0.038	inactive: -0.008	inactive: -0.054	inactive: -0.242	inactive: -0.025	inactive: 0.058	inactive: 0.023	inactive: -0.048	inactive: 0.076		inactive: 0.093		inactive: 0.069	inactive: -0.082		inactive: 0.008	inactive: -0.15
ZER1 (UniProt Q7Z7L7)	inactive: -0.032	inactive: 0.009	inactive: -0.099		inactive: 0.078	inactive: 0.027	inactive: -0.271	inactive: 0.01	inactive: 0.035	inactive: 0.064	inactive: 0.048	inactive: -0.16	inactive: 0.019	inactive: -0.172	inactive: 0.013	inactive: 0.048	inactive: -0.164	inactive: -0.245		
ZBTB43 (UniProt O43298)	inactive: -0.061		inactive: -0.07		inactive: 0.027	inactive: 0.063	inactive: -0.272	inactive: 0.065	inactive: 0.018	inactive: -0.187	inactive: -0.054	inactive: 0.028	inactive: 0.017	inactive: 0.032	inactive: -0.147	inactive: -0.018	inactive: -0.007	inactive: -0.014		
ZCCHC9 (UniProt Q8N567)	inactive: 0.246	inactive: 0.226	inactive: -0.125		inactive: 0.243	inactive: 0.216	inactive: 0.4	inactive: 0.002	inactive: 0.081	inactive: 0.013	inactive: -0.303	inactive: 0.201		inactive: 0.181		inactive: 0.103	inactive: 0.058			
ZBTB24 (UniProt O43167)	inactive: 0.047	inactive: 0.336			inactive: -0.039		inactive: 0.119	inactive: 0.055			inactive: -0.112	inactive: 0.071	inactive: 0.214	inactive: 0.239	inactive: -0.042	inactive: 0.193	inactive: -0.056	inactive: 0.078	inactive: -0.048	inactive: 0.193
ZFR (UniProt Q96KR1)	inactive: 0.116		inactive: -0.046	inactive: -0.142	inactive: 0.092	inactive: 0.332	inactive: 0.077	inactive: 0.063	inactive: 0.031	inactive: 0.114	inactive: -0.167	inactive: 0.051	inactive: 0.193	inactive: 0.122	inactive: -0.009	inactive: 0.039	inactive: 0.026	inactive: -0.11	inactive: -0.144	inactive: 0.42
ZCRB1 (UniProt Q8TBF4)	inactive: 0.021	inactive: 0.092			inactive: 0.221		inactive: 0.154	inactive: -0.01				inactive: 0.066		inactive: 0.307			inactive: -0.25		inactive: -0.025	
ZDHHC6 (UniProt Q9H6R6)	inactive: -0.114	inactive: -0.094					inactive: 0.176	inactive: 0.006			inactive: -0.052	inactive: -0.292		inactive: 0.011						
YLPM1 (UniProt P49750)	inactive: -0.016	active: -0.265	inactive: -0.037		inactive: 0.021	inactive: -0.019	inactive: -0.07	inactive: 0.052	inactive: -0.014	inactive: 0.067	inactive: 0.059	inactive: -0.012	inactive: -0.057	inactive: -0.113	inactive: 0	inactive: 0.039	inactive: -0.006	inactive: 0.006		
ZBTB3 (UniProt Q9H5J0)	inactive: 0.112	inactive: -0.119	inactive: -0.021	inactive: 0.01		inactive: -0.12	inactive: -0.091	inactive: -0.095	inactive: 0.114	inactive: -0.041		inactive: 0.038		inactive: 0.001		inactive: -0.062	inactive: 0.141		inactive: -0.069	inactive: -0.14
YWHAZ (UniProt E7ESK7)	inactive: 0.1	inactive: -0.173					inactive: -0.057	inactive: -0.156			inactive: -0.075		inactive: 0.101		inactive: -0.076	inactive: 0.102		inactive: -0.097		
ZMYND8 isoform 19 (UniProt Q9ULU4)	inactive: -0.069	inactive: -0.181		inactive: 0.032			inactive: -0.197	inactive: 0.077			inactive: 0.247		inactive: 0.051		inactive: -0.052		inactive: -0.018	inactive: 0.019	inactive: -0.096	inactive: -0.185

Limited to log2 fold change [6] and log2 fold change [7], for some of the entries so far:
Target | log2 fold change [6] | log2 fold change [7]
ZDHHC6 (UniProt Q9H6R6) |  | inactive: 0.011
ZMYND8 isoform 19 (UniProt Q9ULU4) | inactive: 0.051 | 
